Results deposited as PubChem BioAssay AID493246 (Drosophila RNAi Screening Center, 2011)
Aim: 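Identify essential fly genes by loss of cell viability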 (primary screen). System: Drosophila Kc and S2R+ cells. Reagents: long dsRNA against Drosophila genes. Measurement: 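Raw, unnormalised count of remaining cells in each well; per-plate z-scores of cell number underlie the calls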. Scale: Kc cell number and S2R+ cell number: higher = more cells remaining. Active means: 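Counted as a hit if cell number falls by a z-score of at least 3 within its plate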.
The deposit covers about 21,000 reagents; below is a random part of those with a known target gene and a result. Of all reagents, 429 (2%) got an active call. 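Values are raw and not normalised between plates; calls rest on per-plate z-scores that were not deposited.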 Names joined by + are all predicted targets of the reagent. Not given: the amount of reagent, the time to read-out.

CG32182 [DRSC09508] — Kc cell number, rep 1: 1.39e6; Kc cell number, rep 2: 1.50e6; S2R+ cell number, rep 1: 1.15e6; S2R+ cell number, rep 2: 1.30e6; Call: inactive
Ugt35B1 [DRSC16893] — Kc cell number, rep 1: 1.55e6; Kc cell number, rep 2: 1.63e6; S2R+ cell number, rep 1: 1.39e6; S2R+ cell number, rep 2: 1.45e6; Call: inactive
Nepl21 [DRSC14133] — Kc cell number, rep 1: 5.63e5; S2R+ cell number, rep 1: 8.47e5; Call: inactive
fh [DRSC18430] — Kc cell number, rep 1: 1.59e6; Kc cell number, rep 2: 1.52e6; S2R+ cell number, rep 1: 1.03e6; S2R+ cell number, rep 2: 1.14e6; Call: inactive
gdl-ORF39 + gdl [DRSC11350] — Kc cell number, rep 1: 1.57e6; Kc cell number, rep 2: 1.70e6; S2R+ cell number, rep 1: 1.31e6; S2R+ cell number, rep 2: 1.42e6; Call: inactive
CG9166 [DRSC07842] — Kc cell number, rep 1: 1.17e6; Kc cell number, rep 2: 1.28e6; S2R+ cell number, rep 1: 9.92e5; S2R+ cell number, rep 2: 1.23e6; Call: inactive
CG9316 [DRSC03195] — Kc cell number, rep 1: 1.45e6; Kc cell number, rep 2: 1.56e6; S2R+ cell number, rep 1: 1.25e6; S2R+ cell number, rep 2: 3.67e5; Call: inactive
CG15128 [DRSC06550] — Kc cell number, rep 1: 1.48e6; Kc cell number, rep 2: 1.52e6; S2R+ cell number, rep 1: 1.14e6; S2R+ cell number, rep 2: 1.25e6; Call: inactive
OstDelta [DRSC06980] — Kc cell number, rep 1: 1.40e6; Kc cell number, rep 2: 1.42e6; S2R+ cell number, rep 1: 1.16e6; S2R+ cell number, rep 2: 1.16e6; Call: inactive
CG10237 [DRSC02029] — Kc cell number, rep 1: 1.47e6; Kc cell number, rep 2: 1.59e6; S2R+ cell number, rep 1: 1.19e6; S2R+ cell number, rep 2: 1.29e6; Call: inactive
CG2852 [DRSC04321] — Kc cell number, rep 1: 1.64e6; Kc cell number, rep 2: 1.72e6; S2R+ cell number, rep 1: 1.25e6; S2R+ cell number, rep 2: 1.33e6; Call: inactive
Ent2 [DRSC02124] — Kc cell number, rep 1: 1.27e6; Kc cell number, rep 2: 1.37e6; S2R+ cell number, rep 1: 6.34e5; S2R+ cell number, rep 2: 7.10e5; Call: inactive
Spt5 [DRSC07556] — Kc cell number, rep 1: 1.65e6; Kc cell number, rep 2: 1.63e6; S2R+ cell number, rep 1: 8.14e5; S2R+ cell number, rep 2: 9.23e5; Call: inactive
CanA1 [DRSC16600] — Kc cell number, rep 1: 1.43e6; Kc cell number, rep 2: 1.46e6; S2R+ cell number, rep 1: 1.03e6; S2R+ cell number, rep 2: 1.10e6; Call: inactive
Tango10 [DRSC19807] — Kc cell number, rep 1: 5.85e5; S2R+ cell number, rep 1: 8.53e5; Call: inactive
Desi [DRSC14909] — Kc cell number, rep 1: 1.46e6; Kc cell number, rep 2: 1.46e6; S2R+ cell number, rep 1: 1.24e6; S2R+ cell number, rep 2: 1.38e6; Call: inactive
His2Av [DRSC16702] — Kc cell number, rep 1: 5.46e5; S2R+ cell number, rep 1: 8.20e5; Call: inactive
CG3107 [DRSC04888] — Kc cell number, rep 1: 1.33e6; Kc cell number, rep 2: 1.42e6; S2R+ cell number, rep 1: 1.16e6; S2R+ cell number, rep 2: 1.12e6; Call: inactive
Qsox4 [DRSC14224] — Kc cell number, rep 1: 1.63e6; Kc cell number, rep 2: 1.64e6; S2R+ cell number, rep 1: 1.28e6; S2R+ cell number, rep 2: 1.44e6; Call: inactive
Strump [DRSC09872] — Kc cell number, rep 1: 1.41e6; Kc cell number, rep 2: 1.43e6; S2R+ cell number, rep 1: 1.29e6; S2R+ cell number, rep 2: 1.36e6; Call: inactive
Map60 [DRSC07464] — Kc cell number, rep 1: 1.37e6; Kc cell number, rep 2: 1.47e6; S2R+ cell number, rep 1: 1.08e6; S2R+ cell number, rep 2: 1.17e6; Call: inactive
CG3597 [DRSC00617] — Kc cell number, rep 1: 1.44e6; Kc cell number, rep 2: 1.50e6; S2R+ cell number, rep 1: 1.03e6; S2R+ cell number, rep 2: 1.15e6; Call: inactive
Tsp42Ef [DRSC06191] — Kc cell number, rep 1: 1.55e6; Kc cell number, rep 2: 1.64e6; S2R+ cell number, rep 1: 1.20e6; S2R+ cell number, rep 2: 1.34e6; Call: inactive
mrt [DRSC15484] — Kc cell number, rep 1: 1.51e6; Kc cell number, rep 2: 1.59e6; S2R+ cell number, rep 1: 1.05e6; S2R+ cell number, rep 2: 1.16e6; Call: inactive
Yp3 [DRSC20302] — Kc cell number, rep 1: 1.57e6; Kc cell number, rep 2: 1.59e6; S2R+ cell number, rep 1: 1.02e6; S2R+ cell number, rep 2: 1.15e6; Call: inactive
Ilp3 [DRSC10168] — Kc cell number, rep 1: 1.29e6; Kc cell number, rep 2: 1.38e6; S2R+ cell number, rep 1: 1.31e6; S2R+ cell number, rep 2: 1.35e6; Call: inactive
Acn [DRSC02062] — Kc cell number, rep 1: 1.29e6; Kc cell number, rep 2: 1.36e6; S2R+ cell number, rep 1: 1.24e6; S2R+ cell number, rep 2: 1.26e6; Call: inactive

Quoted from the listing, 2 entries:
Nepl21 [DRSC14133] — Kc cell number, rep 1: 5.63e5; S2R+ cell number, rep 1: 8.47e5; Call: inactive
fh [DRSC18430] — Kc cell number, rep 1: 1.59e6; Kc cell number, rep 2: 1.52e6; S2R+ cell number, rep 1: 1.03e6; S2R+ cell number, rep 2: 1.14e6; Call: inactive
